# Screen size: about 59,000 compounds; about 6,500 (11%) were called active. Inconclusive results, whose numbers are uncertain, are shown with a selection of clear calls. Rule as the data show it: active = max dye-equivalent concentration above about 10 nM; inconclusive = mostly about 1.1 nM to 9.6 nM; inactive = weaker than that.
# Assay: qHTS Assay for Spectroscopic Profiling in A350 Spectral Region
# Details: Compound autofluorescence, 340/450 nm, Alexa 350 dye-equivalents; hits give high values
row,SMILES,max dye-equivalent concentration
1,CC(C)(C)OC(=O)NCCc1nnc(S(=O)(=O)Cc2ccc(Cl)cc2Cl)o1,inconclusive: 1.5 nM
2,COc1ccc(-c2nc3cnc(N4CCNCC4)nc3n(C3CC3)c2=O)cc1,active: 21 nM
3,OCCCN=C1CCCCC1,inactive
4,Cc1ccc(-n2c(SCC(=O)OC(C)C)nnc2-c2ccco2)cc1,inconclusive: 1.1 nM
5,COc1ccccc1CNC(=O)C1CCN(S(=O)(=O)c2c(C)noc2C)CC1,inactive
6,O=c1c2[nH]c3ccccc3c2ncn1Cc1ccccn1,inconclusive: 1.6 nM
7,O=C1C(Cl)=C(N2CCN(Cc3ccccc3)CC2)C(=O)N1c1ccccc1,inconclusive: 4.4 nM
8,CC12CCCCN1CCCc1c2[nH]c2ccccc12 (configuration not stated),inactive
9,CCOc1nc(-c2ccccc2)ccc1-c1noc(COC)n1,inactive
10,O=C(NCc1nc2ccccc2[nH]1)c1cc2ccccc2oc1=O,inconclusive: 3 nM
11,CCOC(=O)Cn1nnnc1CN(Cc1ccccc1)Cc1cc2cc(CC)ccc2[nH]c1=O,inconclusive: 1.6 nM
12,Clc1ccc(C(c2nnnn2C2CCCC2)N2CCSCC2)cc1 (configuration not stated),inactive
13,C=CCSc1nncn1/N=C/c1ccc(OC)cc1,inconclusive: 1.3 nM
14,COc1ncc2ncc(=O)n(C)c2n1,inconclusive: 2.2 nM
15,CCOc1cc2[nH]c(=O)n(CCC(=O)NCCc3ccc(OC)c(OC)c3)c(=O)c2cc1OCC,inconclusive: 2.4 nM
16,COc1c2c(nc3ccccc13)O[C@H]([C@@](C)(O)CO)C2,active: 29 nM
17,NC(=O)Cc1c[nH]c2cccc(O)c12,inactive
18,Cc1ccc2c(C(=O)CN3CCN(C4CCCCC4)CC3)c(C)[nH]c2c1,active: 44 nM
19,COc1cc2c(cc1OC)C(C(=O)N1CCOCC1)C(c1cccs1)N(C)C2=O (configuration not stated),inactive
20,Cc1ccc([C@@]2(C)CC/C(=N/N=C3\CC[C@](C)(c4ccc(C)c(C)c4)c4cc(C)c(C)cc43)c3cc(C)c(C)cc32)cc1C,active: 73 nM
21,CS(=O)(=O)Nc1cccc(-c2nccc(-n3ccnc3)n2)c1,inactive
22,CC(=O)Nc1cc(-c2nn(CC(=O)N3CCCCC3)c(=O)c3ccccc23)ccc1N1CCOCC1,inactive
23,COC(=O)CCc1c(C)c(C(=O)c2ccco2)c2ccccn12,active: 19 nM
24,CC(=O)Cc1nsc(NC(=O)c2ccc(-c3cc(C(F)(F)F)ccc3Cl)o2)n1,inconclusive: 2.6 nM

# A second format for part of the listing above.
row | SMILES | max dye-equivalent concentration
5 | COc1ccccc1CNC(=O)C1CCN(S(=O)(=O)c2c(C)noc2C)CC1 | inactive
6 | O=c1c2[nH]c3ccccc3c2ncn1Cc1ccccn1 | inconclusive: 1.6 nM

# The listing continues:

row,SMILES,max dye-equivalent concentration
1,CCc1c(C)c2ccc(OCC(N)=O)cc2oc1=O,inconclusive: 9.1 nM
2,COCCn1c(=O)c(-c2ccc(F)c(F)c2)nc2cncnc21,inconclusive: 1.2 nM
3,COc1c2c(nc3ccccc13)O[C@@H]([C@@](C)(O)CO)C2,inactive
4,CC(=O)C(C(C)=O)c1c(Cl)c(O)c(O)c2c(C(=O)c3ccccc3)coc12,inactive
5,Cc1onc(-c2c(F)cccc2Cl)c1C(=O)Nc1nc2c(s1)CCCC2,active: 290 nM
6,CCOC(=O)c1c(C)[nH]sc1=S,active: 40 nM
7,CCOc1ccc(-n2c(Cc3cc(=O)[nH]c(=O)[nH]3)nnc2SCC)cc1,inactive
8,Cc1csc(=Nc2c(C)n(C)n(-c3ccccc3)c2=O)n1Cc1ccccc1,inconclusive: 1.6 nM
9,COc1ccc(N(CC(=O)NCc2cccs2)S(=O)(=O)c2c(C)n[nH]c2C)cc1,inactive
10,Cc1[nH]c2c(Cl)cccc2c(=O)c1CN1CCCC1,inactive
11,O=C(NCc1ccco1)NCC(F)(F)F,inconclusive: 2.8 nM
12,CCOc1ccc(-n2c(Cc3cc(=O)[nH]c(=O)[nH]3)nnc2SC(C)C)cc1,inconclusive: 1.2 nM
13,COC(=O)CSC1=C(C#N)C(c2ccc(Cl)cc2)C(C(=O)OC)C(=O)N1 (configuration not stated),inconclusive: 1.4 nM
14,CCS(=O)(=O)Nc1ccc2c(c1)N(C(C)=O)c1ccccc1CC2,inconclusive: 2 nM
15,COc1ccc(-c2nnc(SCC(=O)NC(C)C)n2CC2CCCO2)cc1OC (configuration not stated),inconclusive: 1.4 nM
16,CCn1c(C(C#N)/C(=N\S(=O)(=O)c2cccs2)c2ccccc2)nc2ccccc21 (configuration not stated),inconclusive: 2.5 nM
17,CC1=[N+]([O-])C(C)(C)CC(C)(C)c2ccccc21,inconclusive: 4.7 nM
18,Cn1c(SCC(=O)c2cccs2)nnc1-c1ccco1,inactive
19,COC(=O)c1sc(NC(=O)CSc2nnc(C(C)C)n2C)nc1C,inconclusive: 5.4 nM
20,Cn1c(=O)cc(SCC(=O)NCc2cccnc2)c2ccccc21,inconclusive: 1.5 nM
21,COc1ccc(N2C(=O)CSC23C(=O)Nc2ccccc23)cc1OC (configuration not stated),inconclusive: 1.5 nM
22,CN(C)CCSc1nc(N)c2c3c(sc2n1)COC(C)(C)C3,inconclusive: 4.6 nM
23,CS(=O)(=O)c1ccc2nc(NC(NC(=O)c3ccco3)(C(F)(F)F)C(F)(F)F)sc2c1,inactive

# — PubChem BioAssay AID590 (National Center for Advancing Translational Sciences (NCATS), 2007)
